The supplement of paper PMC7666118
This is one part of the list.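 How the source made its calls: active = dose-dependent thermal stabilisation significant by F-test of dose-response against flat model at 10% FDR; inactive = not significant.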

Sequences of proteins named here, by UniProt entry; tags and fusion partners are left off. A change or cut given only in a name is not applied to a line headed by its entry.
UniProt Q96J01: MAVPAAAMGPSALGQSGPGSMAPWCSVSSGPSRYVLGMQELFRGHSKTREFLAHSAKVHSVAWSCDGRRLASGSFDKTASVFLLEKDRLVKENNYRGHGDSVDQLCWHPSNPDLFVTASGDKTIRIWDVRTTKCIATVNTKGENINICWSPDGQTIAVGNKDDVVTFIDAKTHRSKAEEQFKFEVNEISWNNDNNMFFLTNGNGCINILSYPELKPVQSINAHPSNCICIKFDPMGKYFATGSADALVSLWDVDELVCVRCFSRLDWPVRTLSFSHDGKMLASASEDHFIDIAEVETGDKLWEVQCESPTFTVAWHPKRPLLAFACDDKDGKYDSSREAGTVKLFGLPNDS
UniProt Q9HA65: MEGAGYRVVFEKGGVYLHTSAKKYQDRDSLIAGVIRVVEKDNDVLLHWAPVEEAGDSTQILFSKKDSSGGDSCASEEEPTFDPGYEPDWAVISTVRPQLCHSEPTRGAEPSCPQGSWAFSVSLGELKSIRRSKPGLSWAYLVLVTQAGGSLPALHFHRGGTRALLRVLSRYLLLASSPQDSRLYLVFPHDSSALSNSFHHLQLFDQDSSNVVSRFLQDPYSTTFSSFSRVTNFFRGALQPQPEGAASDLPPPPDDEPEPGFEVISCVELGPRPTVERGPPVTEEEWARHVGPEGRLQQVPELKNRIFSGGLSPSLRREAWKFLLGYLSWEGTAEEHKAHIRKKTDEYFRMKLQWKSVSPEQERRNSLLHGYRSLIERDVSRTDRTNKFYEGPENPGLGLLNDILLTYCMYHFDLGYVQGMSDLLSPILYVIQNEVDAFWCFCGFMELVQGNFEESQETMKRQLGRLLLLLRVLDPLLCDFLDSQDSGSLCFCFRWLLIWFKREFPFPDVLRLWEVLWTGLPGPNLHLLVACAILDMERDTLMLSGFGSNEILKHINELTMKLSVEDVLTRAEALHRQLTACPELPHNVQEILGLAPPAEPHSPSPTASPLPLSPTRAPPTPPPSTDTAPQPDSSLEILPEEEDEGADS
UniProt Q13472: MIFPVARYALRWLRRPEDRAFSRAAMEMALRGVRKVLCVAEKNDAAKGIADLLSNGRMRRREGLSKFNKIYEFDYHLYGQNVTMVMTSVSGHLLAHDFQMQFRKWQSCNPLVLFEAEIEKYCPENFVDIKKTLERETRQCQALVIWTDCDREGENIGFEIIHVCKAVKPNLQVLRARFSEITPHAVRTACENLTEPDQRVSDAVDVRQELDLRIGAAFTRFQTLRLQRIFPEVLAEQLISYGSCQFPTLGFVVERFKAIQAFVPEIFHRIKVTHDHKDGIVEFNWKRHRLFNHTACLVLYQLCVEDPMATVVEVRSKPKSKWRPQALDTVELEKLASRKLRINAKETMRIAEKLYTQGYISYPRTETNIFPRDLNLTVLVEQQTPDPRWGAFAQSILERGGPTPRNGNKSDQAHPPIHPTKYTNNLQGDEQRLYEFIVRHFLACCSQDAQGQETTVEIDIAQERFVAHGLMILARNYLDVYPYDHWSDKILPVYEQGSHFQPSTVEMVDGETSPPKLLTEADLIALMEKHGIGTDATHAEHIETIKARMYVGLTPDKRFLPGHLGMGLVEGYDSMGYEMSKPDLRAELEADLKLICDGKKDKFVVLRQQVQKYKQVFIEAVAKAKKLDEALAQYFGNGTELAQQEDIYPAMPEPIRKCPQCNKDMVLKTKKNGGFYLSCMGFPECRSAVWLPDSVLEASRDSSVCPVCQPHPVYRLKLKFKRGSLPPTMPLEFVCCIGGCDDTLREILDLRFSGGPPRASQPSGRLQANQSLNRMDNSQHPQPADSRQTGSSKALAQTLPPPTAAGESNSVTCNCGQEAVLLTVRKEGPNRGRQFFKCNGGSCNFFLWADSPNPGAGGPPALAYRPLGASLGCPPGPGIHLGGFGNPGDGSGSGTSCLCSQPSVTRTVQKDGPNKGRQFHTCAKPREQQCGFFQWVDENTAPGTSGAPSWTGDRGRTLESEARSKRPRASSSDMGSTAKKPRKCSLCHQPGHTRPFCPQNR
UniProt Q9NYL9: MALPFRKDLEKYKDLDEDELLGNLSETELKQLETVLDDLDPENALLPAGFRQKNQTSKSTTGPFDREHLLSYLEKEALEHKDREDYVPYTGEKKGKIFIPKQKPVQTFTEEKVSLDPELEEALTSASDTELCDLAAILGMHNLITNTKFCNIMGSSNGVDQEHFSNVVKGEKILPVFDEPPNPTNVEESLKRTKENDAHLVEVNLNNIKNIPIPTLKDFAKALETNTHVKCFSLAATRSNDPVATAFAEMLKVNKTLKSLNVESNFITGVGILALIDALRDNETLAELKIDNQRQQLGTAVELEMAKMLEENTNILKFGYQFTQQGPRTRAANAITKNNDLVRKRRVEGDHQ
UniProt P10599: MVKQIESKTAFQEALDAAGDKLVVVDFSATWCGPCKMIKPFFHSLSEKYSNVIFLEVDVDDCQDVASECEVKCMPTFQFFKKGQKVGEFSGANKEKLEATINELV
UniProt Q9UBT2: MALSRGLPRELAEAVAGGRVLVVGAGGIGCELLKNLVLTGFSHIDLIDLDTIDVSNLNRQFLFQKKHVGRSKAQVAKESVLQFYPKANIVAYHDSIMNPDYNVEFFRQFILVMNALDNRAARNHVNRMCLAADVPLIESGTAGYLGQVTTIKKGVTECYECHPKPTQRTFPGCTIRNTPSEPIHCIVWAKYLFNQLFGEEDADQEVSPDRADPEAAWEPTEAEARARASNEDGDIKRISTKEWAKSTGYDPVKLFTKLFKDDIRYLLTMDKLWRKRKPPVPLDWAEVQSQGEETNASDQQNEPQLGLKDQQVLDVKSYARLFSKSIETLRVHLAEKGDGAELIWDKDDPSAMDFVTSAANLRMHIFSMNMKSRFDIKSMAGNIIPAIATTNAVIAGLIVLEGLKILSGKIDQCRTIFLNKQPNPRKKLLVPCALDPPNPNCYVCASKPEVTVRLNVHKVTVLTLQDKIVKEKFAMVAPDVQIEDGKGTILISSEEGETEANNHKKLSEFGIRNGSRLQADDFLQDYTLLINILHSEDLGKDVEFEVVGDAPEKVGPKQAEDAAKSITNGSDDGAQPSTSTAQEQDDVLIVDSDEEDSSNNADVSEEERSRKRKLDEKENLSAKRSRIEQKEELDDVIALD
UniProt Q9H3S4: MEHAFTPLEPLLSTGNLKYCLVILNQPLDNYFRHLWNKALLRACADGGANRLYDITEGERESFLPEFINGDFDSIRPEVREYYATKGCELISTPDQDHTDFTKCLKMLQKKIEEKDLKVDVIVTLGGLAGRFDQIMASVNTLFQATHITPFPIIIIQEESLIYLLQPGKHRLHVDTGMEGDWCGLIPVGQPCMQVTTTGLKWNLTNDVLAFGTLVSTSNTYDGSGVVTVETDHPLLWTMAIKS
UniProt Q9UJK0: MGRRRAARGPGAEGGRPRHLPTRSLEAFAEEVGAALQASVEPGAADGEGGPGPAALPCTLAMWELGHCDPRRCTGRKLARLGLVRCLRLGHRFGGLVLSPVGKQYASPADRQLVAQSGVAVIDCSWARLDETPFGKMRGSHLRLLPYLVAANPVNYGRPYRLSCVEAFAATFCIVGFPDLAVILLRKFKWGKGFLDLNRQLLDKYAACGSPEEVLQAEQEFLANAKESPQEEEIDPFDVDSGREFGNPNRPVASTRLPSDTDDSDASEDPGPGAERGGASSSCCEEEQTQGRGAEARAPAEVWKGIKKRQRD
UniProt P29144: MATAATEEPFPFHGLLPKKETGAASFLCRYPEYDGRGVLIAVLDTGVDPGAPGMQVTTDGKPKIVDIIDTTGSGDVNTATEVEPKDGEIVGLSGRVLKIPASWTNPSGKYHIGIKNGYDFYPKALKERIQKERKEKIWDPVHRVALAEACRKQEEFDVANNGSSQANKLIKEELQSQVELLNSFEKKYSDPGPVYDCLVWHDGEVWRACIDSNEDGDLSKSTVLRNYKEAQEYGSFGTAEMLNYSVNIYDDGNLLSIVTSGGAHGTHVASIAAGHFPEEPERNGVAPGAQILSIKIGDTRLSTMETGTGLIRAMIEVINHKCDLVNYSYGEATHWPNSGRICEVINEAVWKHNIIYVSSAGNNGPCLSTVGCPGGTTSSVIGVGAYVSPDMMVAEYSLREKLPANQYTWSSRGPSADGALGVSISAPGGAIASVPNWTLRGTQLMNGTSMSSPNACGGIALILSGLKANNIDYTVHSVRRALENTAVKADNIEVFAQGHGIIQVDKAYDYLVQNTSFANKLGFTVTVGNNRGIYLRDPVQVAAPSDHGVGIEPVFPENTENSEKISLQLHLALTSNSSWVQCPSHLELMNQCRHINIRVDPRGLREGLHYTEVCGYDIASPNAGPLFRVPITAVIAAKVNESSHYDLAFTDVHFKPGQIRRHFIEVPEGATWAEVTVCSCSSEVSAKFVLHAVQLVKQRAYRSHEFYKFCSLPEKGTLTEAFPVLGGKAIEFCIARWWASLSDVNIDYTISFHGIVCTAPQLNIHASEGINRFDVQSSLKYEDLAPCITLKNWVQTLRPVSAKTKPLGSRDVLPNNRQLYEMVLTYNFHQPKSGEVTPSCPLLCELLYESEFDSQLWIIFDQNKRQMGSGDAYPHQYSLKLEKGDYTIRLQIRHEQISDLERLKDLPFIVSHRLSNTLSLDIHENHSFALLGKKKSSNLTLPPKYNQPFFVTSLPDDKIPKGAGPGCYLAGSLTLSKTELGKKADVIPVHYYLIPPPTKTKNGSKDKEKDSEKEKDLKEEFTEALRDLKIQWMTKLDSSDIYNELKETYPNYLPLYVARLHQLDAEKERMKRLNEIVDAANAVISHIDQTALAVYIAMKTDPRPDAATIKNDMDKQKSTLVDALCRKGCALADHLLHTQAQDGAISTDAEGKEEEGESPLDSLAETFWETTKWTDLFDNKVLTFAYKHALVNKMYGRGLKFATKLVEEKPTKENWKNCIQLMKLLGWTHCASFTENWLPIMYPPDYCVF
UniProt P29401: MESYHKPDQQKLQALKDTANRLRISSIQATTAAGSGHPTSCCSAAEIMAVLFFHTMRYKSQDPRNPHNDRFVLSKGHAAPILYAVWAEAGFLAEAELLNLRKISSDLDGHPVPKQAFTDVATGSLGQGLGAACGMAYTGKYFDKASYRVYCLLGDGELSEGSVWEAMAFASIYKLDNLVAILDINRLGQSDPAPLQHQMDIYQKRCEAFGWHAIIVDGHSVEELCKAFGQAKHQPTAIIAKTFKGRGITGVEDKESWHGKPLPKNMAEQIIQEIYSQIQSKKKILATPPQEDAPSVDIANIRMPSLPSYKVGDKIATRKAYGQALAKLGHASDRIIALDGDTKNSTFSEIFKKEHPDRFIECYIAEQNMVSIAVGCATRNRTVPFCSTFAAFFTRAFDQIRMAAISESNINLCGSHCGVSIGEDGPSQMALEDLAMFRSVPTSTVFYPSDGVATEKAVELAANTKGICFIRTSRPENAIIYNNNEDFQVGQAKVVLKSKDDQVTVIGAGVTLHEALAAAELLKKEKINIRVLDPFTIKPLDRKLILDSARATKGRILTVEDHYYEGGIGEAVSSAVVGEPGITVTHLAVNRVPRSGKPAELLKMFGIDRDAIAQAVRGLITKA
UniProt Q92844: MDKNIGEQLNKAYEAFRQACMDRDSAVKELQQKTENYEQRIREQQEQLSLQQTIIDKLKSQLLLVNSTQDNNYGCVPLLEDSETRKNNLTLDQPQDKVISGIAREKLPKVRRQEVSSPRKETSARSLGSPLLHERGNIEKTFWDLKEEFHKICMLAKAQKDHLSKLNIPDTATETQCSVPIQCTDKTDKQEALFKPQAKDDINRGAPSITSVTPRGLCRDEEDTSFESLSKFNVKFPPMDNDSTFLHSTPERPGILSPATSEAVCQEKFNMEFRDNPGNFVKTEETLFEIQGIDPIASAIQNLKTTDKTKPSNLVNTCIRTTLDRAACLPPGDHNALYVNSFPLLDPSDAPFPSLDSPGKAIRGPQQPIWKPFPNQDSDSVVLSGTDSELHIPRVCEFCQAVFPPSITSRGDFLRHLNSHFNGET
UniProt Q6DKK2: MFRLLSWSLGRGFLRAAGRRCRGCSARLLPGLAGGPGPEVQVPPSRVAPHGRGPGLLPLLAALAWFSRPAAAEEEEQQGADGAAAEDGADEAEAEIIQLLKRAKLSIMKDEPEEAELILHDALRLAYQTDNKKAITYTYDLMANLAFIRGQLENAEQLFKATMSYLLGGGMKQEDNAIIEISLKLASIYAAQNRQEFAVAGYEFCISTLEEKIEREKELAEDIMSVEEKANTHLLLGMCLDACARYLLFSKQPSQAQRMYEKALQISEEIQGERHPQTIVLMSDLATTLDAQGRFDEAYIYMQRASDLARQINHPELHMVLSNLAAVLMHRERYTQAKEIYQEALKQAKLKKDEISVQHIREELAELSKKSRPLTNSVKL
UniProt Q9BU02: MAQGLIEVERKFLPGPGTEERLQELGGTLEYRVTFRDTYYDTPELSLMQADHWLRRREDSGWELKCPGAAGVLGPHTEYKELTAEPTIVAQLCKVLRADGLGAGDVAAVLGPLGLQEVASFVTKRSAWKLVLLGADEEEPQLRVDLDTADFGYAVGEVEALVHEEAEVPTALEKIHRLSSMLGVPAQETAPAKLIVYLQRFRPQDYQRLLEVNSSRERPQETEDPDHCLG

compound: Nc1nc2c(ncn2[C@@H]2O[C@H](COP(=O)(O)OP(=O)(O)OP(=O)(O)O)[C@@H](O)[C@H]2O)c(=O)[nH]1; assay: dose-dependent thermal stabilisation call (2D-TPP, DLPTP, 10% FDR) (binary (1 = stabilised)); higher = stabilised by the compound; details: system: Jurkat gel-filtered lysate; concentration range 1-500 µM

| Target | dose-dependent thermal stabilisation call |
| --- | --- |
| THOC3 (UniProt Q96J01) | inactive: 0 |
| TBC1D17 (UniProt Q9HA65) | inactive: 0 |
| U2AF1L5 | active: 1 |
| TRRAP (UniProt Q9Y4A5) | inactive: 0 |
| TOP3A (UniProt Q13472) | inactive: 0 |
| TMOD3 (UniProt Q9NYL9) | inactive: 0 |
| TPD52L2 (UniProt O43399) | inactive: 0 |
| TSG101 (UniProt Q99816) | inactive: 0 |
| TXN (UniProt P10599) | inactive: 0 |
| TRNAU1AP (UniProt Q9NX07) | inactive: 0 |
| TRIP11 (UniProt Q15643) | inactive: 0 |
| UBA2 (UniProt Q9UBT2) | inactive: 0 |
| TPK1 (UniProt Q9H3S4) | inactive: 0 |
| TRAPPC3 (UniProt O43617) | inactive: 0 |
| TNKS1BP1 (UniProt Q9C0C2) | inactive: 0 |
| TECPR2 (UniProt O15040) | inactive: 0 |
| TSR3 (UniProt Q9UJK0) | inactive: 0 |
| TPP2 (UniProt P29144) | inactive: 0 |

Copied from the list:
In dose-dependent thermal stabilisation call, TXN (UniProt P10599) has the entry inactive: 0
In dose-dependent thermal stabilisation call, TRIP11 (UniProt Q15643) has the entry inactive: 0

Continuation.

| Target | dose-dependent thermal stabilisation call |
| --- | --- |
| TRMT112 (UniProt Q9UI30) | inactive: 0 |
| TYW3 (UniProt Q6IPR3) | inactive: 0 |
| TUFM (UniProt P49411) | active: 1 |
| TKT (UniProt P29401) | inactive: 0 |
| TSTA3 (UniProt Q13630) | inactive: 0 |
| TSNAX (UniProt Q99598) | inactive: 0 |
| TRAF3IP3 (UniProt Q9Y228) | inactive: 0 |
| TDP1 (UniProt Q9NUW8) | inactive: 0 |
| TRAPPC2 (UniProt P0DI81) | active: 1 |
| TALDO1 (UniProt P37837) | inactive: 0 |
| TST (UniProt Q16762) | inactive: 0 |
| TP53BP2 (UniProt Q13625) | inactive: 0 |
| TANK (UniProt Q92844) | inactive: 0 |
| TTC19 (UniProt Q6DKK2) | inactive: 0 |
| THUMPD3 (UniProt Q9BV44) | inactive: 0 |
| TIAL1 (UniProt Q01085) | inactive: 0 |
| THTPA (UniProt Q9BU02) | inactive: 0 |
| TMA7 (UniProt Q9Y2S6) | inactive: 0 |
